# In PubChem BioAssay AID504408 (Broad Institute, 2011):
# Screen size: about 300,000 compounds; about 5,200 (1.7%) were called active. The inconclusive results got no clear call from the source; some entries with a clear call stand among them for comparison.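 The calls were made as follows: active = mean replicate activation of at least 50% with a set share of replicates each reaching 50%; inconclusive = only one of those two conditions met; inactive = mean below 50% and too few replicates reaching it.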
# Experiment: HSF-1 activators, primary screen, NIH3T3-HGL cells, MG132 stress, luminescence, single point (AID 504408);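 also: 0% = median of the neutral control wells and 100% = twice that signal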
# Details: NIH3T3-HGL HSF-1 luciferase reporter, MG132, 8 h; at 9 µM; hits give high values; 100% = twice DMSO control signal
row,Compound,activation
1,COc1cccc(NC(=O)CSc2nc3c(sc4ccccc43)c(=O)n2CCCN2CCCC2)c1,inactive: -10.5%
2,Cc1nn(-c2ccc(F)cc2)c(Cl)c1/C=C1\C(=O)Nc2ccccc21,inconclusive: 52.3%
3,CC1CCCC(C)N1/N=C/C=C/c1ccccc1[N+](=O)[O-] (configuration not stated),inconclusive: 51.9%
4,Cc1ccc(-c2nn(-c3cc(Cl)ccc3[N+](=O)[O-])c(=O)c3ccccc23)cc1,inconclusive: 50.2%
5,CCn1c2ccccc2c2cc(NC(=O)C/C(C)=N/NC(=O)c3ccccc3N)ccc21,active: 87.9%
6,Cc1cc(C)c(C#N)c(SCc2cn3ccccc3n2)n1,inconclusive: 52.9%
7,COc1ccc2oc(=O)cc(CN3CCN(Cc4ccc(OC)c(OC)c4OC)CC3)c2c1,inactive: 8.95%
8,COc1ccccc1OCCNC(=O)c1ccc(Br)cc1,inconclusive: 50.6%
9,CCOC(=O)c1c(NC(C)=O)sc2c1CCC(C=NCCCN(CC)CC)=C2Sc1ccccc1,inconclusive: 52.4%
10,COc1cc(OC)c(S(=O)(=O)NC(C)C)cc1C(=O)O,inactive: -0.982%
11,CCC1=[N+](CC(=O)c2ccc(C)cc2)CCn2cccc21,active: 50.9%
12,CCCN(CCC)CC(O)Cn1c2ccccc2c2ccccc21 (configuration not stated),inactive: 4.99%
13,Cc1[nH]c2ccccc2c1/C=C/C(=O)c1ccccc1,inactive: 46.8%
14,COc1ccccc1NC(=S)N(Cc1ccco1)Cc1cc2cccc(C)c2[nH]c1=O,active: 119%
15,CC(=O)c1cccc(NC(=O)c2cccc(NC(=O)c3ccco3)c2)c1,inactive: 19.4%
16,CC(=O)c1ccc(OCc2cc(C(=O)N3CCN(c4ccccc4)CC3C)no2)cc1 (configuration not stated),inconclusive: 51.4%
17,COc1cccc(-c2[nH]nc3c2C(c2ccsc2)C(C#N)=C(N)O3)c1 (configuration not stated),inconclusive: 50.4%
18,O=C(CSc1ccccn1)Nc1ccc2ccccc2c1,inconclusive: 50%
19,Cc1ccc(NC(=O)/C(Cl)=C/c2ccccc2)cc1C,inconclusive: 51.3%
20,O=C(Nc1ccc(O)c(-c2nc3ccccc3o2)c1)C1(c2ccc(Cl)cc2)CCCC1,inconclusive: 54.1%
21,CN(C)C1(CNC(=O)Nc2ccccc2)CCCCC1,inactive: -2.36%
22,CCOc1ccc(CCNC(=O)COC(=O)c2cccc(OC)c2O)cc1OCC,inactive: 6.18%
23,Cc1cc(OCC(=O)NC2CCCCC2)ccc1Cl,inconclusive: 50.4%

row,Compound,activation
1,N#Cc1ncc(Cc2ccccc2)nc1C#N,active: 97.2%
2,COc1ccccc1-n1cnnc1SCC(=O)N1CCOCC1,inactive: 4.92%
3,COc1ccc(N2CC(O)(c3ccc(C)cc3)[N+]3=C2CCCC3)cc1 (configuration not stated),inconclusive: 67.1%
4,COc1ccc(CCNc2ncnc3c2c(C)c(C)n3CCO)cc1OC,inconclusive: 56.9%
5,Cc1ccc(OCC(=O)N/N=C/c2ccccc2)c([N+](=O)[O-])c1,inactive: 31%
6,FC(F)(F)c1cc(Cl)c2nc(-c3ccccc3)cn2c1,inconclusive: 50.4%
7,COc1ccc(N=c2sc3ccccc3n2C)cc1,active: 54.7%
8,Cc1ccc(-n2ncc3c2CC(C)(C)CC3NC(=O)CCc2ccc(=O)[nH]n2)cc1 (configuration not stated),inactive: -12.1%
9,Cc1cc(/C=C2/C(=O)N(C)C(=S)N2C)ccc1N1CCCC1,active: 74.4%
10,COc1ccc(CNC(=O)c2ccc(-c3ccccc3)cc2)cc1,inconclusive: 55.4%
11,N#Cc1c(NC(=O)CSc2nnc(-c3ccccc3)o2)sc2c1CCCC2,active: 76.1%
12,O=c1[nH]c(N/N=C\c2ccc3c(c2)OCO3)nc2ccccc12,inconclusive: 54.4%
13,COc1ccc2oc(=O)c(C(=O)OCC(=O)c3ccc([N+](=O)[O-])cc3)cc2c1,inconclusive: 50.7%
14,O=S(=O)(c1ccc(Oc2ccccc2)cc1)N1CCOCC1,inconclusive: 51.9%
15,COC(=O)c1ccc(NC(=O)C(=O)c2cccn2C)cc1,active: 60.7%
16,CCOC(=O)c1c(-c2ccc(C)o2)csc1NC(=O)CSc1nnnn1-c1ccccc1,inconclusive: 64.5%
17,O=C(Cn1nc(-c2ccccc2Cl)ccc1=O)Nc1ccccc1-c1ccccc1,active: 52.7%
18,O=C(COC(=O)c1ccccc1C(=O)c1ccccc1)Nc1cccc([N+](=O)[O-])c1,inconclusive: 53.9%
19,O=C(Cc1cccs1)Nc1ccc(-c2nc3ccccc3[nH]2)cc1,inconclusive: 54.4%
20,COc1ccc(C(CCNCc2ccccc2)c2ccc(F)cc2)cc1 (configuration not stated),inconclusive: 58%
21,COc1ccc(C2=CC(=O)C=CC2=O)cc1,inconclusive: 53.7%
22,Cc1cccc(C)c1NC(=O)c1ccc([N+](=O)[O-])s1,inconclusive: 51%
23,Cc1c(NC(=O)c2ncn[nH]2)cccc1-c1nc2ccccc2s1,inactive: -5.97%

# 3 structures already listed, arranged by count of non-hydrogen atoms, low to high.
row,Compound,activation
18,O=C(CSc1ccccn1)Nc1ccc2ccccc2c1,inconclusive: 50%
12,O=c1[nH]c(N/N=C\c2ccc3c(c2)OCO3)nc2ccccc12,inconclusive: 54.4%
14,COc1ccccc1NC(=S)N(Cc1ccco1)Cc1cc2cccc(C)c2[nH]c1=O,active: 119%

# Next results.

row,Compound,activation
1,Cc1cccn2c(=O)c(/C=C(\C#N)C(N)=O)c(N3CCN(c4cccc(Cl)c4)CC3)nc12,inactive: 3.66%
2,O=C(c1ccc2c(Cl)c3c(nc2c1)CCCC3)N1CCC(N2CCCCC2)CC1,inconclusive: 52.5%
3,O=C(C1=C(Nc2ccccc2)c2ccccc2S(=O)(=O)N1)c1ccccc1,inactive: 18.3%
4,NS(=O)(=O)Cc1noc2ccccc12,inactive: -6.19%
5,Clc1cccc(Cl)c1COn1nnc2ccccc21,inconclusive: 50.4%
6,COc1cc(C(C(=O)NC(C)(C)C)N(Cc2ccccc2)C(=O)c2cnccn2)cc(OC)c1OC (configuration not stated),inactive: 5%
7,O=C(NCc1ccc(Cl)cc1)C(=O)c1c[nH]c2ccccc12,inconclusive: 54.9%
8,c1ccc(-c2cn(-c3ccccc3)c3[n+]2CCCS3)cc1,inactive: 2.98%
9,CC1(C)SC2c3ccccc3C(=O)N2[C@@H]1C(=O)NC1CC1 (some centres not stated),inactive: -14.3%
10,c1ccc(CSc2nnc(-c3ccco3)n2Cc2ccccc2)cc1,inconclusive: 56.2%
11,CCC(=O)N1CCN(c2ccc(NC(=O)COc3ccc(C)cc3C)cc2)CC1,active: 110%
12,CNC(=O)c1c(Cl)cnn1-c1ccc(C)cc1,inconclusive: 51.6%
13,CCOc1ccc(N=C(NN)c2ccc3ccccc3n2)cc1,inactive: -83.6%
14,COc1ccc(C2C(Oc3ccccc3)C(=O)N2c2cc(C)ccc2C)cc1OC (configuration not stated),inconclusive: 52.3%
15,S=C(NCc1ccccn1)Nc1ccccc1Cl,active: 63.2%
16,O=[N+]([O-])c1c(NCCCO)cc(Sc2ccc(Cl)cc2)c2nonc12,inconclusive: 188%
17,Cc1cccc(CN(C(=S)Nc2c(C)cccc2C)c2cccnc2)c1,inconclusive: 51.7%
18,CC(NC(=O)c1ccccc1F)c1nnc(SCC(=O)Nc2nccs2)n1C (configuration not stated),inconclusive: 53%
19,CSc1ccccc1NC(=O)c1ccc(Br)o1,inactive: 26.6%
20,CN(c1cccc(NC(=O)CN(c2cccc(Cl)c2)S(=O)(=O)c2ccc(Cl)cc2)c1)S(C)(=O)=O,inconclusive: 66.5%
21,Cc1cccc(-c2csc(N)c2C(=O)OC(C)C)c1,inconclusive: 53%
22,COC(=O)c1cccc(NC(=O)c2nn(C)c(=O)c3ccccc23)c1,inconclusive: 55.7%
23,Cc1ccc(-c2nc3ccccc3o2)cc1NC(=O)c1ccc2c(c1)OCO2,inactive: 3.47%

row,Compound,activation
1,O=C(NCc1ccccc1Cl)c1cc([N+](=O)[O-])ccc1Cl,inactive: 5.65%
2,COC(=O)/C(=C\c1ccc2c(c1)c1ccccc1n2C)NC(=O)c1ccccc1,inconclusive: 53.6%
3,C=C1CCC[C@]2(C)C[C@H]3OC(=O)C(CNC(CC)CO)[C@H]3CC12 (some centres not stated),active: 142%
4,COc1cc2c(cc1OC)C1(Nc3c-2c(Cc2ccccc2)nn3-c2ccccc2)C(=O)Nc2ccccc21 (configuration not stated),inactive: 13.5%
5,COc1ccc(C(=O)N(C)CC(O)c2ccccc2)cc1OC1CCN(C(C)=O)CC1 (configuration not stated),inconclusive: 51.7%
6,O=C(O)c1ccc(/C=N/NC(=S)NCc2ccccc2)cc1,inconclusive: 54.1%
7,Cc1cc(S(=O)(=O)N2CCCC(C)C2)ccc1-n1cnnn1 (configuration not stated),inactive: -19.6%
8,CCCCn1c(NCc2ccc3c(c2)OCO3)nc2ccccc21,inactive: 0.848%
9,COC(=O)C1=CN(c2ccc(F)cc2)C=C(C(=O)OC)C1c1cccc(Br)c1,inconclusive: 53.1%
10,CNC(=O)N(O)C1N(/N=C/c2c(F)cccc2Cl)C(=S)SC1(C)C (configuration not stated),inconclusive: 58.8%
11,Cc1cc(=O)[nH]c(SCC(=O)c2ccccc2)c1C#N,inactive: 18.1%
12,C/C(=N\NC(=O)c1nn(C)c(C)c1Br)c1cccc(NC(=O)c2ccoc2C)c1,inconclusive: 51.5%
13,CC1Cc2cc(/C=C3/SC(N4CCC(C(N)=O)CC4)=NC3=O)ccc2O1 (configuration not stated),inactive: -15.3%
14,Cc1cc(C)cc(Oc2ccccc2/C=C\C(=O)O)c1,inconclusive: 53.5%
15,CCCCOc1ccc(C(=O)Nc2cccc(C)n2)cc1,active: 57.2%
16,Cc1ccc(OCc2nnc(SCC(=O)Nc3ncc(C)s3)o2)cc1,inconclusive: 53.8%
17,COc1ccccc1CNC(=O)CCS(=O)(=O)c1cccc2nonc12,inactive: 5.09%
18,Cc1ccnc(NC(=O)c2ccc(S(=O)(=O)N3CCC(C)CC3)cc2)c1,inactive: 8.85%
19,CSc1cccc(NC(=O)c2cccc3cccnc23)c1,active: 53.8%
20,CCOC(=S)SCC(=O)N1CCc2cc(OC)c(OC)cc2C1C1C(=O)CC(C)(C)CC1=O (configuration not stated),inconclusive: 54.6%
21,O=C(O)C(Cc1ccccc1)N1C(=O)c2c(Cl)c(Cl)c(Cl)c(Cl)c2C1=O (configuration not stated),inconclusive: 50.2%
22,COc1cccc(N/C(SCc2ccccc2F)=C(/C#N)C(=O)NCc2cccs2)c1,active: 63.4%
23,C=CCN(Cc1nc(-c2ccc(OC)c(OC)c2)oc1C)C1CCS(=O)(=O)C1 (configuration not stated),inactive: -1.74%

# By substructure, the entries above containing an NH in an aromatic ring
row,Compound,activation
13,Cc1[nH]c2ccccc2c1/C=C/C(=O)c1ccccc1,inactive: 46.8%
14,COc1ccccc1NC(=S)N(Cc1ccco1)Cc1cc2cccc(C)c2[nH]c1=O,active: 119%
17,COc1cccc(-c2[nH]nc3c2C(c2ccsc2)C(C#N)=C(N)O3)c1 (configuration not stated),inconclusive: 50.4%
8,Cc1ccc(-n2ncc3c2CC(C)(C)CC3NC(=O)CCc2ccc(=O)[nH]n2)cc1 (configuration not stated),inactive: -12.1%
12,O=c1[nH]c(N/N=C\c2ccc3c(c2)OCO3)nc2ccccc12,inconclusive: 54.4%
19,O=C(Cc1cccs1)Nc1ccc(-c2nc3ccccc3[nH]2)cc1,inconclusive: 54.4%
23,Cc1c(NC(=O)c2ncn[nH]2)cccc1-c1nc2ccccc2s1,inactive: -5.97%
7,O=C(NCc1ccc(Cl)cc1)C(=O)c1c[nH]c2ccccc12,inconclusive: 54.9%
11,Cc1cc(=O)[nH]c(SCC(=O)c2ccccc2)c1C#N,inactive: 18.1%
